Literature values as cited in patent US6046219A, “Method for the treatment of conditions mediated by collagen formation together with cell proliferation by application of inhibitors of protein hydroxylation” (Cornell Research Foundation, Inc., priority 1997, dated 2000).
Read-outs that look alike come from different tables or passages of the source. For at least one compound, name, drawing or mass did not settle the structure.

Tests used:
prolyl 4-hydroxylase = settings: literature, cited from earlier work
deoxyhypusyl hydroxylase = settings: literature, cited from earlier work
cell proliferation = settings: literature/experimental evidence; cited from earlier work
collagen formation = settings: Majamaa et al. 1984; cited from earlier work
[1] = listed as pyridine 2,4-dicarboxylate

Compound | inhibition of prolyl 4-hydroxylase (prolyl 4-hydroxylase) | inhibition of deoxyhypusyl hydroxylase (deoxyhypusyl hydroxylase) | effect on cell proliferation or cell cycle transit (cell proliferation) | inhibition of prolyl 4-hydroxylase (prolyl 4-hydroxylase; [1]) | inhibition of deoxyhypusyl hydroxylase (deoxyhypusyl hydroxylase; [1]) | inhibition of collagen formation (collagen formation)
O=C(O)c1ccc(C(=O)O)nc1 [pyridine 2,5-dicarboxylate] | potent prolyl 4-hydroxylase antagonists | lack the ability to inhibit deoxyhypusyl hydroxylase | do not affect cell proliferation or cell cycle transit | – | – | –
O=C(O)c1ccnc(C(=O)O)c1 [pyridine-2,4-dicarboxylate] | binds to the active site metal ion of prolyl 4-hydroxylase | non-inhibitory | do not affect cell proliferation or cell cycle transit | potent prolyl 4-hydroxylase antagonists | lack the ability to inhibit deoxyhypusyl hydroxylase | excellent inhibitor
